# Data as given in the supplement of paper PMC8728848.
# The other results are listed elsewhere or left out.
# Columns and labels:
# Experiment in all cases: glycan array binding signal (z-score within array); higher = stronger binding
# Details in all cases: glycan notation: IUPAC condensed, linker removed
# [1] = target: Gal(b1-3)GalNAc(b1-3)Gal
# In short: (§1)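 Glycan array data came from 3228 arrays in the Consortium for Functional Glycomics database, and only arrays with an available protein sequence were kept. Glycan names were put into IUPAC-condensed notation, and columns mapping to the same glycan were averaged. The binding signal is a within-array Z-score, averaged across arrays of one protein sequence run at different concentrations or buffers and across linkers. A negative Z-score can be read as non-binding.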
# [2] = target: Gal(b1-3)GalNAc(b1-3)Gal(a1-4)Gal(b1-4)Glc
# In short: as §1
# [3] = target: Gal(b1-3)GalNAc(b1-4)Gal(b1-4)Glc
# In short: as §1
# [4] = target: Gal(b1-3)GalNAc(b1-4)[Neu5Ac(a2-3)]Gal(b1-4)Glc
# In short: as §1
# [5] = target: Gal(b1-3)GlcNAc
# In short: as §1
# [6] = target: Gal(b1-3)GlcNAc(a1-3)Gal(b1-4)GlcNAc
# In short: as §1
# [7] = target: Gal(b1-3)GlcNAc(a1-6)Gal(b1-4)GlcNAc
# In short: as §1
# [8] = target: Gal(b1-3)GlcNAc(b1-2)Man
# In short: as §1
# [9] = target: Gal(b1-3)GlcNAc(b1-2)Man(a1-3)[Gal(b1-3)GlcNAc(b1-2)Man(a1-6)]Man(b1-4)GlcNAc(b1-4)GlcNAc
# In short: as §1
# [10] = target: Gal(b1-3)GlcNAc(b1-2)Man(a1-3)[Gal(b1-3)GlcNAc(b1-2)Man(a1-6)]Man(b1-4)GlcNAc(b1-4)[Fuc(a1-6)]GlcNAc
# In short: as §1
# [11] = target: Gal(b1-3)GlcNAc(b1-2)Man(a1-3)[GlcNAc(b1-4)][Gal(b1-3)GlcNAc(b1-2)Man(a1-6)]Man(b1-4)GlcNAc(b1-4)GlcNAc
# In short: as §1
# [12] = target: Gal(b1-3)GlcNAc(b1-2)[Gal(b1-3)GlcNAc(b1-6)]Man(a1-6)[Gal(b1-3)GlcNAc(b1-2)Man(a1-3)]Man(b1-4)GlcNAc(b1-4)GlcNAc
# In short: as §1
# [13] = target: Gal(b1-3)GlcNAc(b1-3)Gal(b1-3)GlcNAc
# In short: as §1
# [14] = target: Gal(b1-3)GlcNAc(b1-3)Gal(b1-4)Glc
# In short: as §1
# [15] = target: Gal(b1-3)GlcNAc(b1-3)Gal(b1-4)GlcNAc
# In short: as §1
# [16] = target: Gal(b1-3)GlcNAc(b1-3)Gal(b1-4)GlcNAc(b1-2)Man(a1-3)[Gal(b1-3)GlcNAc(b1-3)Gal(b1-4)GlcNAc(b1-2)Man(a1-6)]Man(b1-4)GlcNAc(b1-4)GlcNAc
# In short: as §1
# [17] = target: Gal(b1-3)GlcNAc(b1-3)Gal(b1-4)GlcNAc(b1-2)[Gal(b1-3)GlcNAc(b1-3)Gal(b1-4)GlcNAc(b1-6)]Man(a1-6)[Gal(b1-3)GlcNAc(b1-3)Gal(b1-4)GlcNAc(b1-2)Man(a1-3)]Man(b1-4)GlcNAc(b1-4)[Fuc(a1-6)]GlcNAc
# In short: as §1
# [18] = target: Gal(b1-3)GlcNAc(b1-3)Gal(b1-4)GlcNAc(b1-3)Gal(b1-4)GlcNAc(b1-2)[Gal(b1-3)GlcNAc(b1-3)Gal(b1-4)GlcNAc(b1-3)Gal(b1-4)GlcNAc(b1-6)]Man(a1-6)[Gal(b1-3)GlcNAc(b1-3)Gal(b1-4)GlcNAc(b1-3)Gal(b1-4)GlcNAc(b1-2)Man(a1-3)]Man(b1-4)GlcNAc(b1-4)[Fuc(a1-6)]GlcNAc
# In short: as §1
# [19] = target: Gal(b1-3)GlcNAc(b1-3)Gal(b1-4)GlcNAc(b1-6)[Gal(b1-3)GlcNAc(b1-3)]Gal(b1-4)Glc
# In short: as §1
# [20] = target: Gal(b1-3)GlcNAc(b1-3)Gal(b1-4)[Fuc(a1-3)]GlcNAc
# In short: as §1
# [21] = target: Gal(b1-3)GlcNAc(b1-3)Gal(b1-4)[Fuc(a1-3)]GlcNAc(b1-6)[Gal(b1-3)GlcNAc(b1-3)]Gal(b1-4)Glc
# In short: as §1
# [22] = target: Gal(b1-3)GlcNAc(b1-3)GalNAc
# In short: as §1
# [23] = target: Gal(b1-3)GlcNAc(b1-6)Gal(b1-4)GlcNAc
# In short: as §1
# [24] = target: Gal(b1-3)GlcNAc(b1-6)GalNAc
# In short: as §1
# [25] = target: Gal(b1-3)GlcNAc(b1-6)[Gal(b1-3)]GalNAc
# In short: as §1
# [26] = target: Gal(b1-3)GlcNAc6S
# In short: as §1
# [27] = target: Gal(b1-3)[Fuc(a1-4)]GlcNAc
# In short: as §1
# [28] = target: Gal(b1-3)[Fuc(a1-4)]GlcNAc(b1-2)Man
# In short: as §1
# [29] = target: Gal(b1-3)[Fuc(a1-4)]GlcNAc(b1-2)Man(a1-3)[Gal(b1-3)[Fuc(a1-4)]GlcNAc(b1-2)Man(a1-6)]Man(b1-4)GlcNAc(b1-4)[Fuc(a1-6)]GlcNAc
# In short: as §1
# [30] = target: Gal(b1-3)[Fuc(a1-4)]GlcNAc(b1-3)Gal(b1-3)[Fuc(a1-4)]GlcNAc
# In short: as §1
# [31] = target: Gal(b1-3)[Fuc(a1-4)]GlcNAc(b1-3)Gal(b1-4)[Fuc(a1-3)]GlcNAc
# In short: as §1
# [32] = target: Gal(b1-3)[Fuc(a1-4)]GlcNAc(b1-6)GalNAc
# In short: as §1
# [33] = target: Gal(b1-3)[GlcNAc(b1-6)]GalNAc
# In short: as §1
# [34] = target: Gal(b1-3)[Neu5Ac(a2-6)]GalNAc
# In short: as §1
# [35] = target: Gal(b1-3)[Neu5Ac(a2-6)]GlcNAc(b1-4)Gal(b1-4)Glc
# In short: as §1
# [36] = target: Gal(b1-3)[Neu5Ac(b2-6)]GalNAc
# In short: as §1
# [37] = target: Gal(b1-4)Gal
# In short: as §1
# [38] = target: Gal(b1-4)GalNAc(a1-3)[Fuc(a1-2)]Gal(b1-4)GlcNAc
# In short: as §1
binder,measurement,setting,value
LlpA (Arthrobacter sp) (protein) MGSSHHHHHHSSGLVPRGSHMTLHPETALRPGAAATSPNSRYRLLYQTDGNLVLYGPDGPLWDSGTNGHGAGACIMQADGNLVLYGPNDEYVWDTETDNNPGSRLVIQDDGNAVIYRPDGSPLWATETCQPPGSADSHVLQSGSTLTPTHGIRSANGLYGLLYQTDGNLVFYGPDGPLWDSGTNGRGAGACIMQPDGNLVLYGPHDEYVWDTETDNNPGSRLVIQDDGNAVIYRPDGNPTWVTGTH,glycan array binding signal (z-score),[1],-0.601
same,glycan array binding signal (z-score),[2],0.693
same,glycan array binding signal (z-score),[3],-0.72
same,glycan array binding signal (z-score),[4],0.415
same,glycan array binding signal (z-score),[5],-0.071
same,glycan array binding signal (z-score),[6],-0.154
same,glycan array binding signal (z-score),[7],-0.211
same,glycan array binding signal (z-score),[8],0.816
same,glycan array binding signal (z-score),[9],1.75
same,glycan array binding signal (z-score),[10],0.47
same,glycan array binding signal (z-score),[11],-0.169
same,glycan array binding signal (z-score),[12],0.558
same,glycan array binding signal (z-score),[13],-0.589
same,glycan array binding signal (z-score),[14],0.063
same,glycan array binding signal (z-score),[15],-0.022
same,glycan array binding signal (z-score),[16],0.051
same,glycan array binding signal (z-score),[17],1.06
same,glycan array binding signal (z-score),[18],0.626
same,glycan array binding signal (z-score),[19],0.713
same,glycan array binding signal (z-score),[20],-0.104
same,glycan array binding signal (z-score),[21],-0.389
same,glycan array binding signal (z-score),[22],-0.118
same,glycan array binding signal (z-score),[23],1.03
same,glycan array binding signal (z-score),[24],-0.718
same,glycan array binding signal (z-score),[25],-0.823
same,glycan array binding signal (z-score),[26],-0.465
same,glycan array binding signal (z-score),[27],-0.367
same,glycan array binding signal (z-score),[28],0.309
same,glycan array binding signal (z-score),[29],0.672
same,glycan array binding signal (z-score),[30],-0.753
same,glycan array binding signal (z-score),[31],-0.845
same,glycan array binding signal (z-score),[32],0.957
same,glycan array binding signal (z-score),[33],-0.25
same,glycan array binding signal (z-score),[34],-0.937
same,glycan array binding signal (z-score),[35],-0.842
same,glycan array binding signal (z-score),[36],-0.148
same,glycan array binding signal (z-score),[37],1.03
same,glycan array binding signal (z-score),[38],-0.375

# Two entries from above, as tab-separated lines.
binder	measurement	setting	value
LlpA (Arthrobacter sp) (protein) MGSSHHHHHHSSGLVPRGSHMTLHPETALRPGAAATSPNSRYRLLYQTDGNLVLYGPDGPLWDSGTNGHGAGACIMQADGNLVLYGPNDEYVWDTETDNNPGSRLVIQDDGNAVIYRPDGSPLWATETCQPPGSADSHVLQSGSTLTPTHGIRSANGLYGLLYQTDGNLVFYGPDGPLWDSGTNGRGAGACIMQPDGNLVLYGPHDEYVWDTETDNNPGSRLVIQDDGNAVIYRPDGNPTWVTGTH	glycan array binding signal (z-score)	[35]	-0.842
same	glycan array binding signal (z-score)	[36]	-0.148
